Measured values taken from article PMC8050238.
These are yes or no findings as the source states them, for the method shown. In cells and extracts the contact can be indirect. Here binding means that the protein was enriched with, or labelled near, the bait; the list need not be complete.

Amino acid sequences for entries named in this document (tags omitted).
UniProt P78347: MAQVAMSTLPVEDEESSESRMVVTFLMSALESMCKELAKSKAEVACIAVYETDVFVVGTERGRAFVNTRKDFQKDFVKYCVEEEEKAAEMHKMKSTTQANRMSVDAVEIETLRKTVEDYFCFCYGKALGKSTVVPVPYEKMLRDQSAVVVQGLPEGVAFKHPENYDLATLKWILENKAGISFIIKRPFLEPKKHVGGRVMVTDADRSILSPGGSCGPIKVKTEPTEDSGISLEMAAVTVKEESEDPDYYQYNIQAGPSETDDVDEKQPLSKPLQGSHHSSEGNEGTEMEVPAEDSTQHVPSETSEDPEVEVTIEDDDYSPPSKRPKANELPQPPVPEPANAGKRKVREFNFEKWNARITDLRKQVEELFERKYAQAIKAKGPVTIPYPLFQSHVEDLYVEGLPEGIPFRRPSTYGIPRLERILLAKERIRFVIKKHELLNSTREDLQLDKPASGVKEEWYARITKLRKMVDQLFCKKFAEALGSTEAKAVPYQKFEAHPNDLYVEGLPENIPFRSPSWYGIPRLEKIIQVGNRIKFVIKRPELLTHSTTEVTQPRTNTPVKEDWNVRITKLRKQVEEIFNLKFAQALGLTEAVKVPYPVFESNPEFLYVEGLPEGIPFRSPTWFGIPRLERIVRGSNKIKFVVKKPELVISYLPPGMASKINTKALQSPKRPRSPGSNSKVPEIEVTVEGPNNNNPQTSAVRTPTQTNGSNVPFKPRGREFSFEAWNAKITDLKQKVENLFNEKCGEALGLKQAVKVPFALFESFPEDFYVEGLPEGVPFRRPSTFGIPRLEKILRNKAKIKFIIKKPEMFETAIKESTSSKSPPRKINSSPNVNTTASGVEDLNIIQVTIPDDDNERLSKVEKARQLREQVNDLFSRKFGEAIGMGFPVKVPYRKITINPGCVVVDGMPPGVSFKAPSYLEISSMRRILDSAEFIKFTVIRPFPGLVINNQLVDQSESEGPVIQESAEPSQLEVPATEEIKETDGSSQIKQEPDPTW
UniProt P78527: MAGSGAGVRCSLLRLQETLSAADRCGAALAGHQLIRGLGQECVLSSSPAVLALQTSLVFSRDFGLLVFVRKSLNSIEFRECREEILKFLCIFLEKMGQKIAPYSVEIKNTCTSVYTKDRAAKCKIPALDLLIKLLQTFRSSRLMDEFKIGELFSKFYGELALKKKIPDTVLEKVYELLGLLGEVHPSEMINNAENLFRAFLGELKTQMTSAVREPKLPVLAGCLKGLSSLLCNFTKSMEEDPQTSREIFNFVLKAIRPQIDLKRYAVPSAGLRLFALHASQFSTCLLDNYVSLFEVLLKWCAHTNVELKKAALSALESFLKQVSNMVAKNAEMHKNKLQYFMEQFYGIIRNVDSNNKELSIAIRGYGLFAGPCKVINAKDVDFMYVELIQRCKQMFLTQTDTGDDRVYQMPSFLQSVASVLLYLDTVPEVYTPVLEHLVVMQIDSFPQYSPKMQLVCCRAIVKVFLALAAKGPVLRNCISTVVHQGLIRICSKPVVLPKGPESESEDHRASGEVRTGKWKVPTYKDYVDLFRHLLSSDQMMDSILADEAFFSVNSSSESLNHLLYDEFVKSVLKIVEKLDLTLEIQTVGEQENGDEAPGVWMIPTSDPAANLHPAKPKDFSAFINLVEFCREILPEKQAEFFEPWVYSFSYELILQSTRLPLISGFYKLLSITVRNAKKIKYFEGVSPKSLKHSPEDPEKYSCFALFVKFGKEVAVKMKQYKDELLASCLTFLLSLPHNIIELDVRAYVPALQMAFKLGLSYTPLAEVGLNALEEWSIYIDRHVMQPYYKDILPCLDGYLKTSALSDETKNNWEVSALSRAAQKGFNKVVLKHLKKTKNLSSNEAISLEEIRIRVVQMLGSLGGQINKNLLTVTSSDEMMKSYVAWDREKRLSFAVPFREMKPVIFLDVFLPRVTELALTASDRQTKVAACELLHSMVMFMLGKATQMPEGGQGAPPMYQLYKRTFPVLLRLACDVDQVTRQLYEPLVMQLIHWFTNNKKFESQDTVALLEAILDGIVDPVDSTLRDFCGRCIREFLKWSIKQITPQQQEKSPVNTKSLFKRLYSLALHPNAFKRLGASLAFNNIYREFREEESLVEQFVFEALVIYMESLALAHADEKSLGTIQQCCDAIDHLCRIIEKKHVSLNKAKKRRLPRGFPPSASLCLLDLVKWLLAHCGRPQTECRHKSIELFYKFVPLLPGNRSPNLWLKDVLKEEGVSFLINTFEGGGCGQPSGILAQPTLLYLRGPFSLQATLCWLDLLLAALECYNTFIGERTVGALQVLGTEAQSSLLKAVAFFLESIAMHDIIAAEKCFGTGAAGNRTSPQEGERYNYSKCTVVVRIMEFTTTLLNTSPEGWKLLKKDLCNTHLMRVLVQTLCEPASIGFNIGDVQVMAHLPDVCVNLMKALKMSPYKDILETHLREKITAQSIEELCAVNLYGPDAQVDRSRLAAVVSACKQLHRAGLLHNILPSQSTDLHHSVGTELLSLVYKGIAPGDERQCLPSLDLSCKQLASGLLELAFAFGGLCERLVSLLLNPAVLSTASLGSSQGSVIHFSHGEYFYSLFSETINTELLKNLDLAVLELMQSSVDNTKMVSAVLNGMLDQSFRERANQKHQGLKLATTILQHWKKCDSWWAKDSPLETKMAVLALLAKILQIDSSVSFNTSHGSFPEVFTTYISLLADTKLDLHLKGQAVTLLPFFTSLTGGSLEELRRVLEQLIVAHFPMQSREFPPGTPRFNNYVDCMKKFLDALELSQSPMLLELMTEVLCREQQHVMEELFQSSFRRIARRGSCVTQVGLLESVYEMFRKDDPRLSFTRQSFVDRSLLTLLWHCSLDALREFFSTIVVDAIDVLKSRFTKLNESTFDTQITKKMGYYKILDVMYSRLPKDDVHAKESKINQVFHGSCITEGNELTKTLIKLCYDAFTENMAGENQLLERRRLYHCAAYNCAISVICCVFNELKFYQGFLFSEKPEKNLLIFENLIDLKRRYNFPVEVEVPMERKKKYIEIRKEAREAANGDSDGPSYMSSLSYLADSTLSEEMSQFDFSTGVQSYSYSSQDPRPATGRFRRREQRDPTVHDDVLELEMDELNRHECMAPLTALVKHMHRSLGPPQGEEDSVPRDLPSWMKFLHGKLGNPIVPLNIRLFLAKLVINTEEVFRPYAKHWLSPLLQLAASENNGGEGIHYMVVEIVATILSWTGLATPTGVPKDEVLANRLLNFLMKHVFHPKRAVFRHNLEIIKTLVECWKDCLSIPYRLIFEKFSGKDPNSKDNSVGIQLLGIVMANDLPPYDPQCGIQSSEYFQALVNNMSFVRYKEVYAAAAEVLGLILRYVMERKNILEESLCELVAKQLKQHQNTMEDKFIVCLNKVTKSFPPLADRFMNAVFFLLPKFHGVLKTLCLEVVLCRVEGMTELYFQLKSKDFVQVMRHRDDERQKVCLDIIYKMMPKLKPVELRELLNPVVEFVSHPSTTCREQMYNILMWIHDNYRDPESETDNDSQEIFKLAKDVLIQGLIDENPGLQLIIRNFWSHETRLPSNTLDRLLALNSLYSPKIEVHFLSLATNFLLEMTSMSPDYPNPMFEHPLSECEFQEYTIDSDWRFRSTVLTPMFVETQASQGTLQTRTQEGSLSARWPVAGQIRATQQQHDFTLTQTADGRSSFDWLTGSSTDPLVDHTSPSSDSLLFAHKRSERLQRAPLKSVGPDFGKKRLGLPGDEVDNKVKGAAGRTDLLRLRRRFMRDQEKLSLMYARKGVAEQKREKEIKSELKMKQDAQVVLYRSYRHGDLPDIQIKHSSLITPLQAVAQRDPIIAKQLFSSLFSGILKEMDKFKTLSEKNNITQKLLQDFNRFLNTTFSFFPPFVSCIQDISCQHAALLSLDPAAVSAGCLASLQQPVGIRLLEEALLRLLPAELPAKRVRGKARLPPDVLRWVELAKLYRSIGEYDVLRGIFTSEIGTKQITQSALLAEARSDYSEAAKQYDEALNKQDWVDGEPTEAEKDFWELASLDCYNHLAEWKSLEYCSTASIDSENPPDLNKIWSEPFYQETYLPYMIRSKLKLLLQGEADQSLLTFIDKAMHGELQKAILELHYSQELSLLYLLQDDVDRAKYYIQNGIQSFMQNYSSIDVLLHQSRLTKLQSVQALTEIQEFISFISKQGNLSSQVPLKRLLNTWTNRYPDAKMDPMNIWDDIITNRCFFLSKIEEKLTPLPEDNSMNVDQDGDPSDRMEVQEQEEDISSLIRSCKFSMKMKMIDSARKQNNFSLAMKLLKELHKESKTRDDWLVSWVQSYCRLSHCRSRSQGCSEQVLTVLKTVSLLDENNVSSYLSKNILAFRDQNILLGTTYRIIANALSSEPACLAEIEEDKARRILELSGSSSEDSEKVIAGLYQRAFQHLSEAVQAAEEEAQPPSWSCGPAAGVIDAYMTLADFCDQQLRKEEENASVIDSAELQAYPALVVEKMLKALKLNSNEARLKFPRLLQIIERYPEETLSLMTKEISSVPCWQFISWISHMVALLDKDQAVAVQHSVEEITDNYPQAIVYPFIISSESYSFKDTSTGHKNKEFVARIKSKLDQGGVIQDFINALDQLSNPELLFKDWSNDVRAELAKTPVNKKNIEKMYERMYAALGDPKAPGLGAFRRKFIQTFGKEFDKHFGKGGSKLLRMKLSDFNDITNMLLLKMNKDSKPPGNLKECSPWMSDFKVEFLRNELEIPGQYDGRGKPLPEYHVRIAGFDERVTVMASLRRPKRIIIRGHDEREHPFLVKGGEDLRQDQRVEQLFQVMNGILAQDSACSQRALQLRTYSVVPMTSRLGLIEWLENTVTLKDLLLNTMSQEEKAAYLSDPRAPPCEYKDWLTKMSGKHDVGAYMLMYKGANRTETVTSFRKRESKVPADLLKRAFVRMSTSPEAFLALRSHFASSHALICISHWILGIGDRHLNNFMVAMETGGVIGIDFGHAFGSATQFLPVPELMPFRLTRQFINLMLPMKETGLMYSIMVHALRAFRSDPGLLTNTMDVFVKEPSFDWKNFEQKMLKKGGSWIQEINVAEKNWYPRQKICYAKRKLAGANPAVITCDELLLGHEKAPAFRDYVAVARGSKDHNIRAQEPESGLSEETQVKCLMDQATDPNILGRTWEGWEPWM

Target: general transcription factor II-I (GTF2I), Myc-tagged (human) (UniProt P78347)
Experiment: affinity purification with mass spectrometry; HEK293T cells transfected with pCMV6-entry-myc-GTF2I, lysed 48 h later (20 mM Tris-Cl, 5 mM EDTA, pH 7.4, 150 mM NaCl, 1% Triton X-100, 10% glycerol); lysate immunoprecipitated with anti-Myc antibody or normal mouse IgG and protein G beads at 4 °C; SDS-PAGE, Coomassie, bands at 120 kDa and above 270 kDa excised, trypsin, LC-MS/MS; three independent experiments

Q: How did the binding turn out when “DNA-dependent protein kinase catalytic subunit (PRKDC) (from UniProt P78527 1-4128)” was run?
A: The binding was “binds”.
